{"source": "patent EP0133407A1", "about": "“Acetylene derivatives having an enzyme-inhibiting activity, their preparation and their use as medicines” (Etablissement Public dit: CENTRE NATIONAL DE LA RECHERCHE …, priority 1983, dated 1985)", "tested_on": "aldéhyde déshydrogénase", "assay": "Inhibition of aldehyde dehydrogenase activity (NADP to NADPH, absorbance at 340 nm, benzaldehyde substrate)", "assay_type": "biochemical", "settings": "pre-incubation of the enzyme with the product, benzaldéhyde as substrate", "note": "The name of at least one read-out is uncertain."}
{"smiles": "CC(C)(N)C#CC=O", "note": "[composé 6a]", "values": [{"measurement": "diminution de la densité optique due à la transformation NADP - NADPH", "value": 64, "unit": "X"}]}
